Assay results as given in patent US9067898B1, “Isothiazole derivatives as GPR120 agonists for the treatment of type II diabetes” (Janssen Pharmaceutica NV, priority 2014, dated 2015).
pEC50: −log10 of the molar value. Structures were worked out from names or drawings and are uncertain.

Chains of the proteins cited; added tags and fusions are not shown. Residues count along the entry.
UniProt Q5NUL3, whole entry: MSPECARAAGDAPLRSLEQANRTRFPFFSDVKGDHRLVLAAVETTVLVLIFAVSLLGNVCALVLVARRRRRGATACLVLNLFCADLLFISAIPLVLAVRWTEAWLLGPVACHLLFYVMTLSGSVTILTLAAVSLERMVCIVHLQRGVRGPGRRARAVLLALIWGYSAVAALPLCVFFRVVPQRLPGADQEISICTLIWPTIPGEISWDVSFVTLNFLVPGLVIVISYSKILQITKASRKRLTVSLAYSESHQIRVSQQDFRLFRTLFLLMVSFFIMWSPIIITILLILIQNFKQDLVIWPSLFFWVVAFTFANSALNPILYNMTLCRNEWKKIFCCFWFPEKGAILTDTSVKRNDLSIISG
UniProt Q5NUL3, 1-377 isoform 1: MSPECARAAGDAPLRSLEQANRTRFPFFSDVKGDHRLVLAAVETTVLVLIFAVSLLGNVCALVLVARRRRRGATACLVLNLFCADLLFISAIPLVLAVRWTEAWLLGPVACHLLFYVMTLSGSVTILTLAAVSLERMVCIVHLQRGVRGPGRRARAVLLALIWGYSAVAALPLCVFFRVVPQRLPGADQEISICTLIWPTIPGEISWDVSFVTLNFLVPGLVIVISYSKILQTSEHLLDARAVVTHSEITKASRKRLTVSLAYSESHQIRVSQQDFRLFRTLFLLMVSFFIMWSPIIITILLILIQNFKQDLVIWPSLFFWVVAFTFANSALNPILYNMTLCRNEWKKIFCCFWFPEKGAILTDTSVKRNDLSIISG
UniProt P32121, whole entry partner: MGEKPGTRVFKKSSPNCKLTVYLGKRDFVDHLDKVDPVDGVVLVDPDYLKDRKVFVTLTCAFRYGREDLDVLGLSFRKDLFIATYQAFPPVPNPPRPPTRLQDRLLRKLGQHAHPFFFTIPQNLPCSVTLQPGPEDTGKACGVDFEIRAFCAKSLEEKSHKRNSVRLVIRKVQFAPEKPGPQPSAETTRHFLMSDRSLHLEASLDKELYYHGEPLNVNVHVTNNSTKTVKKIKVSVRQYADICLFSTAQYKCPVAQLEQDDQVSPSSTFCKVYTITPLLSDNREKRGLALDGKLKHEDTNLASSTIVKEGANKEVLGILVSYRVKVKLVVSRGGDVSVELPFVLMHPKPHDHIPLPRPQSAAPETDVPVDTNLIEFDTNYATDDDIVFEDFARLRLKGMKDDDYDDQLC

Key:
[1] = target: long form of human GPR120 (Homo sapiens, UniProt Q5NUL3); test: Human GPR120 DiscoveRx PathHunter Beta-Arrestin assay, Procedure β-arrestin A; settings: read-out: hGPR120 β-arrestin A EC50, PathHunter CHO-K1 GPR120 β-Arrestin cell line, 3000 cells per well
From the text: The binding of an agonist (medium/long chain fatty acids or small molecule agonists) to the G-protein-coupled receptor GPR120 activates phospholipase C, leading to release of intracellular Ca^+2 through the generation of inositol 1,4,5-trisphosphate (InsP3 or IP3). GPR120 activation can also trigger intracellular signaling via recruitment of Beta-Arrestin. In the present method, agonist-induced activation of the human GPR120 receptor is monitored through the use of PathHunter CHO-K1 GPR120 Beta-Arrestin Cell Line engineered by DiscoveRx, as detailed below. The cell lines are designed to co-express both the ProLink/Enzyme Donor (PK)-tagged GPCR and the Enzyme […] (EA)-tagged Beta-Arrestin fusion proteins. […] This active Beta-gal complex can enzymatically hydrolyse the substrate to produce a detectable light signal; therefore, activation as a function of agonist concentration can be expressed as an EC50 value to determine relative compound activities. […]
The plates were read on an EnVision instrument, using Protocol name: Luminescence, Plate type: 384 Costar, Measurement height: 3 mm, Measurement time: 1 s, Aperture: 384 Plate aperture. The % activity relative to the positive control was calculated using the following equation: […]

[2] = target: Human GPR120 short form (Homo sapiens, UniProt Q5NUL3); test: Human GPR120 calcium flux assay (FLIPR), Procedure Calcium A; settings: read-out: GPR120 Ca2+ Assay A EC50; HEK-293 cells expressing human GPR120 short form, 2500 cells/well
From the text: This in vitro assay serves to assess test compound agonist activity against the short splice variant (SVS with Accession number NM_001195755.1 confirmed by sequencing data) of the GPR120 receptor. The Human Short splice variant #2 (NM_001195755.1) is missing an in-frame coding exon compared to variant 1 (the Human Long splice variant NM_181745.3), resulting in a shorter isoform (GPR120-S) lacking a 16 aa protein segment compared to isoform GPR120-L. The assay platform utilizes HEK-293 cells stably transfected to express the Human GPR120 short form. These cells are first loaded with the Ca^+2 sensitive dye, Fluo-4 NW. Upon stimulation, intracellular released Ca^+2 can bind to the dye and alter its fluorescence intensity. This increase in fluorescence signal, and thus the flux in intracellular [Ca^2+], is detected and quantitated by fluorescence imaging using a FLIPR reader. The effect of the agonist is measured as a function of concentration and used to calculate an EC50 based upon a response curve.
In this procedure 2500 cells/well were employed. […]
The assay was performed on a FLIPR plate reader using the following parameters. Baseline was read for 10 seconds at 1 sec intervals. The program was set to transfer 10 μL of ligand from compound plate to cell plate after baseline reading. […] After compound addition, each well was read for 300 sec, with measurements collected at 1 sec intervals. […]

O=C(O)CCc1cc(F)c(OCc2sc(F)cc2-c2ccc(Cl)cc2)c(F)c1
pEC50 [1]: 6.68
pEC50 [2]: 7.00

Cc1ccc(-c2snc(Cl)c2COc2ccc(CCC(=O)O)c(C(F)(F)F)c2)c(C)c1 [Cpd 256, 3-[4-{[3-Chloro-5-(2,4-dimethylphenyl)isothiazol-4-yl]methoxy}-2-(trifluoromethyl)phenyl]propanoic acid]
pEC50 [2]: 5.49
